No constants are given. Whether binding was seen depends on the method and setting. Binding seen in cells or lysates may run through a third protein. These calls come from enrichment with a bait or labelling near it, and not all partners need be listed.
Molecular target: Hypoxia-inducible factor-1α (HIF-1α) (human (endogenous in MDA-MB-231)) (UniProt Q16665)
Experiment: affinity purification with mass spectrometry; RIME: MDA-MB-231 cells treated with DMOG (1 mM) or DMSO for 8 h, cross-linked with 1% formaldehyde, nuclear fraction sonicated, immunoprecipitated with bead-prebound HIF-1α antibody; a single sample for each condition

By UniProt entry, the sequences of proteins in these tests, tags left out.
UniProt Q16665: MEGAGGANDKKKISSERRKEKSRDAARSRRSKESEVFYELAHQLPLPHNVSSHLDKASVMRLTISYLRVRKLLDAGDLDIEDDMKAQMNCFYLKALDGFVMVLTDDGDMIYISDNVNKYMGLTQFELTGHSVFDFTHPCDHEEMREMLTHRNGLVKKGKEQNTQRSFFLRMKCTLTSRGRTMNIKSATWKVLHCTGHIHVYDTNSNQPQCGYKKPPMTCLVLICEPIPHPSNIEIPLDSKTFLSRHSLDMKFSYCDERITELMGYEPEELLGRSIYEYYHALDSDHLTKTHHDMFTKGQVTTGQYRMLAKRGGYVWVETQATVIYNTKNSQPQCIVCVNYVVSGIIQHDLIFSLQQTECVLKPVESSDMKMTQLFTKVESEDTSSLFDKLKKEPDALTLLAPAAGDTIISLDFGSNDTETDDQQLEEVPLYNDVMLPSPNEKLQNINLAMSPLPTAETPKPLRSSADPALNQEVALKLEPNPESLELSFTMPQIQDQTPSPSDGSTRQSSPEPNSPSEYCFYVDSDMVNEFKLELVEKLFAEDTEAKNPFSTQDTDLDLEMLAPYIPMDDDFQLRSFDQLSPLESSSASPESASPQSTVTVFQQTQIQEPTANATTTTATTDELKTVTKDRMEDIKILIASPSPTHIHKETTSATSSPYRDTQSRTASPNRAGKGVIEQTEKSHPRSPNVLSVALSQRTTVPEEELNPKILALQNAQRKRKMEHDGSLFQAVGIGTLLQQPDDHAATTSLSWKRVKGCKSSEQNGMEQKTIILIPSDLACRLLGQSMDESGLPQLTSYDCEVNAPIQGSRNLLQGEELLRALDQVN
UniProt Q13263: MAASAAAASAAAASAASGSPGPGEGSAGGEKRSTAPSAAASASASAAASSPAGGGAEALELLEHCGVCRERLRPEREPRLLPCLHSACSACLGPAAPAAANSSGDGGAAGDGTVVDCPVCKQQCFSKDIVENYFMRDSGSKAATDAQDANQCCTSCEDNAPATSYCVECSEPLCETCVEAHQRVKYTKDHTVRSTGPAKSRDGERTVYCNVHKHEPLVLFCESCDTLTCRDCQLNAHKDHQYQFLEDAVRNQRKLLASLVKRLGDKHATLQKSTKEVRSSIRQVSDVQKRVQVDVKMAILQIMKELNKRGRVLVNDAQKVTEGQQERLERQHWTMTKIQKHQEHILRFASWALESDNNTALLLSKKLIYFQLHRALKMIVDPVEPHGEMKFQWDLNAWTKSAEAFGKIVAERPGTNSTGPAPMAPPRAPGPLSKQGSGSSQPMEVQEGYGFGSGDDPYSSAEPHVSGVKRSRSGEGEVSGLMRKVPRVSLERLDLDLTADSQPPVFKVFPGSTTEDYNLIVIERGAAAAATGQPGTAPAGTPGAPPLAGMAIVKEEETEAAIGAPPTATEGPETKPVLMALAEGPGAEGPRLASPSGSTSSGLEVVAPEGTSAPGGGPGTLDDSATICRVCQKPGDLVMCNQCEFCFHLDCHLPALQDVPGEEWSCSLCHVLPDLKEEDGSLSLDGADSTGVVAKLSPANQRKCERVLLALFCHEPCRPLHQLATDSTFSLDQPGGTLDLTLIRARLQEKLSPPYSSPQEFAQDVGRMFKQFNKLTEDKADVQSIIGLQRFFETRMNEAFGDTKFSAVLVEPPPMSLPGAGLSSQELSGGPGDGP
UniProt P78527: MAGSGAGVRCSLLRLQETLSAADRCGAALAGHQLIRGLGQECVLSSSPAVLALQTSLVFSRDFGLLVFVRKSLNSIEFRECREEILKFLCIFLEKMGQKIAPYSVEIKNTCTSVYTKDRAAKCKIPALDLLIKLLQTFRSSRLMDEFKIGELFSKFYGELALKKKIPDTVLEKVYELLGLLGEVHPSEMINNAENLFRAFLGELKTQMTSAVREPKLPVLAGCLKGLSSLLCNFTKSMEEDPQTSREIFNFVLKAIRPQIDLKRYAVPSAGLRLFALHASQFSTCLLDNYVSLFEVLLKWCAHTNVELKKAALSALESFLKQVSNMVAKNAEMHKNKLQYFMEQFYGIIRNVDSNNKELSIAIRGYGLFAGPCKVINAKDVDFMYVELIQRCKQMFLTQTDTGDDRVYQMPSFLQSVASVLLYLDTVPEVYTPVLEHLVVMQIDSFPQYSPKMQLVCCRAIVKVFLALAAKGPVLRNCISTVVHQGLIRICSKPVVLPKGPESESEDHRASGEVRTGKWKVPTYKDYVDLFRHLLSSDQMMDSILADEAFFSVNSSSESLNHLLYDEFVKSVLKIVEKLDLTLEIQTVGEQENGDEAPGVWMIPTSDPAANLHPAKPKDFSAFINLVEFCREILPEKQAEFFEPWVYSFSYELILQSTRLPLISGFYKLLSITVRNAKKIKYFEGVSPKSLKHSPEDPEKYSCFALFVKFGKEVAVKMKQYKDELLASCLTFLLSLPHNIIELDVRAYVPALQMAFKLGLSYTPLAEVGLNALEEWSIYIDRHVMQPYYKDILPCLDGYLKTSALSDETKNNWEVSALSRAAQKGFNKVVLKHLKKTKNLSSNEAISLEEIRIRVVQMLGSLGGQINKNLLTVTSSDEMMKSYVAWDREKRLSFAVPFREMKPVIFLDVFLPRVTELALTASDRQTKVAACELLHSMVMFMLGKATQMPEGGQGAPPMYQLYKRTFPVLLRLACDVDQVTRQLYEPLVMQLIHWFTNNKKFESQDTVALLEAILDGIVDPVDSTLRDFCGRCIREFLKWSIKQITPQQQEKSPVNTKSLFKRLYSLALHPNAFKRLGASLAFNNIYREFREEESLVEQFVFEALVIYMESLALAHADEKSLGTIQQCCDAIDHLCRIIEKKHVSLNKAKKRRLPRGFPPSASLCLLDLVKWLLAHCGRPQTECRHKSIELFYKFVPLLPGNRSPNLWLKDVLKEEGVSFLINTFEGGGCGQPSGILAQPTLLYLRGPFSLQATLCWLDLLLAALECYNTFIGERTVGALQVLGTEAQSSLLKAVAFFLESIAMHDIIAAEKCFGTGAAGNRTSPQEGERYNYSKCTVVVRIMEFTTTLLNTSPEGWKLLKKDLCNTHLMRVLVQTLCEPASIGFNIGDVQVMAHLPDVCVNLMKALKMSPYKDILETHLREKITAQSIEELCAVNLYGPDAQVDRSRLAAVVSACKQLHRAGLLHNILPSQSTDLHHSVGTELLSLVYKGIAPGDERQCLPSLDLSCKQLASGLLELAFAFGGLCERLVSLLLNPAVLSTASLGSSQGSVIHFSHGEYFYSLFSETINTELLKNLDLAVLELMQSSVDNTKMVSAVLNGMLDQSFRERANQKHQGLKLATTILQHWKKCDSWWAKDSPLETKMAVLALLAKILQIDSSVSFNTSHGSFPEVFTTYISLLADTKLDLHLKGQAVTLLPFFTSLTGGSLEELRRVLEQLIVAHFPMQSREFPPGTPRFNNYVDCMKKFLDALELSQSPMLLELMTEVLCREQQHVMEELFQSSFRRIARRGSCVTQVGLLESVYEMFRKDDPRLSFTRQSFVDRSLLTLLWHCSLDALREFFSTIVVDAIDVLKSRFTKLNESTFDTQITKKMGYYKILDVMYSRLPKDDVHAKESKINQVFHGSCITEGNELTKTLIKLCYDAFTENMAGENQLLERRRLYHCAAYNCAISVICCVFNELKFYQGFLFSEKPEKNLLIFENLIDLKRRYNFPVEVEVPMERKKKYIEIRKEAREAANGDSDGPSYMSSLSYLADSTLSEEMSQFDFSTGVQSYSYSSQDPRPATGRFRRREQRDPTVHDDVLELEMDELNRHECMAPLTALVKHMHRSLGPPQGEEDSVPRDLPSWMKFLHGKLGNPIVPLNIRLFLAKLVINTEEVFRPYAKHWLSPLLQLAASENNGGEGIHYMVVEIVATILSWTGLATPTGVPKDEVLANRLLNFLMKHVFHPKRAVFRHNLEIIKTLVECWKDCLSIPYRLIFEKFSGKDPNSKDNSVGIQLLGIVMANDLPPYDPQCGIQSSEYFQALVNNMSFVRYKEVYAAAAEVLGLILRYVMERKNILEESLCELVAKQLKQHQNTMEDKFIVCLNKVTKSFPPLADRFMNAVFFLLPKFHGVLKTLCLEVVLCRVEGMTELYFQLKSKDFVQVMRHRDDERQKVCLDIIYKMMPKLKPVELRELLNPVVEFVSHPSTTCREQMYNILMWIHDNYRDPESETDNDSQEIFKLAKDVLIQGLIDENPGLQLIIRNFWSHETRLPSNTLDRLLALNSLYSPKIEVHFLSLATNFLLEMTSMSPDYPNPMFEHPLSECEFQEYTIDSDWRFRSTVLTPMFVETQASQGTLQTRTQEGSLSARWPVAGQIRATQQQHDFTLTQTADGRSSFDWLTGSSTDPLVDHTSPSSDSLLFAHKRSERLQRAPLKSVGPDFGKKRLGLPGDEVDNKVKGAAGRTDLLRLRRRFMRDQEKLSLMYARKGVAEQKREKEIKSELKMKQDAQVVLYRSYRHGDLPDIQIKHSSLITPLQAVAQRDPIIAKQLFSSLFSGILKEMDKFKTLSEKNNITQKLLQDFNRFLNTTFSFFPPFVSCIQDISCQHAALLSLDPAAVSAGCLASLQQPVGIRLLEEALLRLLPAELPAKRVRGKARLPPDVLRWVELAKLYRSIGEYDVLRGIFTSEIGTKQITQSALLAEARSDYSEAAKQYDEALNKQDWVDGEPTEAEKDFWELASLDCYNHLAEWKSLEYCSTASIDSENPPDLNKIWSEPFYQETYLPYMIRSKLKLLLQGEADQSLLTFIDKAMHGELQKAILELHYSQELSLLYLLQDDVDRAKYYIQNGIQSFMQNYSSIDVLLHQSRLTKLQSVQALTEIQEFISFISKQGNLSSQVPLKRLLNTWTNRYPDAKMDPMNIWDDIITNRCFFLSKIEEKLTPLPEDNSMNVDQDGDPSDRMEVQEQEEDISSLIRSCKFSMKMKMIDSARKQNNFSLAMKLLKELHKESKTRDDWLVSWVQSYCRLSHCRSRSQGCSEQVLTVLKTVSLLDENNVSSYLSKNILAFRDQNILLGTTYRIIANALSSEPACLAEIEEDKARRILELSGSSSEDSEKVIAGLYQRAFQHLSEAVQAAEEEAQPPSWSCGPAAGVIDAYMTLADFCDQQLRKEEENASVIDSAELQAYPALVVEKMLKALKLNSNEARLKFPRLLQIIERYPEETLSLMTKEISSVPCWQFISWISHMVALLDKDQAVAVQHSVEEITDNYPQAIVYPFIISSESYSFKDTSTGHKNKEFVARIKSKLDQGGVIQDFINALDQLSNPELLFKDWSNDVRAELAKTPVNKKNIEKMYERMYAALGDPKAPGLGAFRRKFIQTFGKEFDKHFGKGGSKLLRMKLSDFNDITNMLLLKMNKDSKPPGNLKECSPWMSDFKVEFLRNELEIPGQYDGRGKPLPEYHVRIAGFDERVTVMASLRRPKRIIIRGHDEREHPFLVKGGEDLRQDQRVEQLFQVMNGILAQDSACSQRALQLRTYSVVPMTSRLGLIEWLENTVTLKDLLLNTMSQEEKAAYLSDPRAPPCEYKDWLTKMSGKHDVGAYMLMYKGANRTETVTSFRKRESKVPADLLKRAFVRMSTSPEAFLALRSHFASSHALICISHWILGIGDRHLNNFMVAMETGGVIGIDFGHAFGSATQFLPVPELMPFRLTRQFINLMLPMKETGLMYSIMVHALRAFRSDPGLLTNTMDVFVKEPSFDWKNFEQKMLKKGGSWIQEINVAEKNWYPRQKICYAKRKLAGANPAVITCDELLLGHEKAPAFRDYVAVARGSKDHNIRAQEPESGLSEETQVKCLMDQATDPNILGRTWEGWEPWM
UniProt P12956: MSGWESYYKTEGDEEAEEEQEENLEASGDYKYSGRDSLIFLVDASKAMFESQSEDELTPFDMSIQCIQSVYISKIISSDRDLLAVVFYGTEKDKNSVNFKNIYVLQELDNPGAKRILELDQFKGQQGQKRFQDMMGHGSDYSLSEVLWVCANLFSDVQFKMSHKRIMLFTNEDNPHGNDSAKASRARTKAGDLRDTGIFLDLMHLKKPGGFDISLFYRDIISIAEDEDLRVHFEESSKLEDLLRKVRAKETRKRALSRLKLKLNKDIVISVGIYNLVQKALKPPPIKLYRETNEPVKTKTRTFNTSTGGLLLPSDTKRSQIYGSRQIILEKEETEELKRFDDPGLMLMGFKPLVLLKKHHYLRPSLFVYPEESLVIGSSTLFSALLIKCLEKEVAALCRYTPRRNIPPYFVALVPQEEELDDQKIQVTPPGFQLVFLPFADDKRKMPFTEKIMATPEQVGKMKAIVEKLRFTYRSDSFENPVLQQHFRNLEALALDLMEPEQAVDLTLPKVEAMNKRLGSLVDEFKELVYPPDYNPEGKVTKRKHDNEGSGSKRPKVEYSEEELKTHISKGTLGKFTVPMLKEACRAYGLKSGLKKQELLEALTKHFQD

| binding | Substance |
| --- | --- |
| binds | Tripartite motif containing protein 28 (TRIM28) (from UniProt Q13263 1-835) |
| binds | KU86 (from UniProt P13010 1-732) |
| binds | PARP1 (from UniProt P09874 1-1014) |
| binds | DNA-dependent protein kinase catalytic subunit (DNA-PKcs) (from UniProt P78527 1-4128) |
| binds | PKM (from UniProt P14618 1-531) |
| binds | KU70 (from UniProt P12956 1-609) |
| binds | RUVBL1/PONTIN (from UniProt Q9Y265 1-456) |

From paper PMC8760265
